Assay results taken from paper PMC8748900.
Results are given in words; binding and its absence hold for the method and conditions named. For some assays here: Binding can be weak; no strength is given. Sequences can lack the tags named with a protein. For some assays here: In cells and extracts the contact can be indirect.

The chains behind the UniProt entries cited, without tags or fusion partners. Where a name states a change or a piece, a line headed by the entry shows the natural chain unless it says otherwise.
UniProt A0A1P8BCA2: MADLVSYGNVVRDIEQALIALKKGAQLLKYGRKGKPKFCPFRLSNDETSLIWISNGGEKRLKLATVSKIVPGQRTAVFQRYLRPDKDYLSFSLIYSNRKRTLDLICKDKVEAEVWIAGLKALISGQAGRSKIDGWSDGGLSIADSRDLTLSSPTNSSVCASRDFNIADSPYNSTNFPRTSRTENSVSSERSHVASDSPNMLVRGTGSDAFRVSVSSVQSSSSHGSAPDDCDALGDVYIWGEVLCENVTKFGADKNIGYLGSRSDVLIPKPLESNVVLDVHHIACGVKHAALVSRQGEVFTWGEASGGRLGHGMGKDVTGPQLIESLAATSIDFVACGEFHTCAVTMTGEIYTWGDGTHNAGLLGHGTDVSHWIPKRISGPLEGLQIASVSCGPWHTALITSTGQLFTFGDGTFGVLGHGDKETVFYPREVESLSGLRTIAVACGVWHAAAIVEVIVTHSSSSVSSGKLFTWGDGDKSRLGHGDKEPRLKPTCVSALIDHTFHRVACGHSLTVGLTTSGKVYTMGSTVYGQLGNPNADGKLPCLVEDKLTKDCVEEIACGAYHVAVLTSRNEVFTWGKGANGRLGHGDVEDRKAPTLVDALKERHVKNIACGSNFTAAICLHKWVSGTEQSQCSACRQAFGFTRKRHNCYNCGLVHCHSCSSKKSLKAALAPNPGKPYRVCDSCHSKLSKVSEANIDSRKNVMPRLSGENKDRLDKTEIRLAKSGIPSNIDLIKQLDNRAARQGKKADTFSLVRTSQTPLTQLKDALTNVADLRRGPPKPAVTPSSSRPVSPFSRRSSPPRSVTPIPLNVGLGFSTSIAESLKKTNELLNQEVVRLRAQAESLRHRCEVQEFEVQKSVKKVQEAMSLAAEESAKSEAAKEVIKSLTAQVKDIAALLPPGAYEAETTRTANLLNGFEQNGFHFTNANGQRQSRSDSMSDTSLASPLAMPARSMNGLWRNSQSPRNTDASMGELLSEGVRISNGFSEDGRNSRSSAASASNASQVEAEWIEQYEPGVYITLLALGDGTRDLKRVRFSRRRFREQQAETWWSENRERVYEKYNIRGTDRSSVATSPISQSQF
UniProt F4K0X5: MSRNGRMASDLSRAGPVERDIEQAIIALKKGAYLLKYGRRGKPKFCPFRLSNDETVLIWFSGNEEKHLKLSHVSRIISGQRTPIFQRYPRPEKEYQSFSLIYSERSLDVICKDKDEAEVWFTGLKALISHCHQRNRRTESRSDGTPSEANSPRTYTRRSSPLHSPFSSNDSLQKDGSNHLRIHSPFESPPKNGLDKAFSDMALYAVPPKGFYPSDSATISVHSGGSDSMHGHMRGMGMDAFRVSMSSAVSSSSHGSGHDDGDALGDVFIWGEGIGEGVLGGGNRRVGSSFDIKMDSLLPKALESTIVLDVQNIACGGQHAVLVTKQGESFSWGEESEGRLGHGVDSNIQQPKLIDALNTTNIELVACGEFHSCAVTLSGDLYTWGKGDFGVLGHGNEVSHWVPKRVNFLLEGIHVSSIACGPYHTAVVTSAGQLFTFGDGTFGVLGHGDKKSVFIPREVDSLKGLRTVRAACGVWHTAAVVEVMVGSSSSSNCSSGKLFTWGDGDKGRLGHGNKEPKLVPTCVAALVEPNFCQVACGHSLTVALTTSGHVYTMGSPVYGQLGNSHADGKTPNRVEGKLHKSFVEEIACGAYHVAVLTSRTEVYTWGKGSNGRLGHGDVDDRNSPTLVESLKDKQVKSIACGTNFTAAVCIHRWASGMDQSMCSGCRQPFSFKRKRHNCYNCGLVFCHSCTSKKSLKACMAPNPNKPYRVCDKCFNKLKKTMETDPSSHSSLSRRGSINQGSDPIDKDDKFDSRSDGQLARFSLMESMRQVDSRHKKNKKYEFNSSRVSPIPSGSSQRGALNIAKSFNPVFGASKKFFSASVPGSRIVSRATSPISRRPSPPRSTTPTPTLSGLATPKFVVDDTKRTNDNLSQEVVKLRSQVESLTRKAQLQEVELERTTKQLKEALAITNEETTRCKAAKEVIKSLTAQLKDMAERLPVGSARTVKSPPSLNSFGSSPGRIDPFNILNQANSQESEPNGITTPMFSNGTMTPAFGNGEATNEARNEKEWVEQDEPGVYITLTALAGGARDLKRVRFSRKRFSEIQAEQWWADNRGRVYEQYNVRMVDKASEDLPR

T1: BASL, full-length, fused with Gal4 DNA-binding domain (Arabidopsis thaliana) (UniProt Q5BPF3)
T1 sequence: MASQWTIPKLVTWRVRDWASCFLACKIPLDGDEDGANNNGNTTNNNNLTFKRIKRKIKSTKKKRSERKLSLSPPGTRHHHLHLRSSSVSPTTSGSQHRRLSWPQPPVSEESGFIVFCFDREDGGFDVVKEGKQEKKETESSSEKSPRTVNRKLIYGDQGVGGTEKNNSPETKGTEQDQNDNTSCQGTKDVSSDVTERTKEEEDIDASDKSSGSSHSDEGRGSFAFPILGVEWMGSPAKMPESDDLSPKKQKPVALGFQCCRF

T2: BASL fused with a split YFP half (BiFC) (Arabidopsis thaliana) (UniProt Q5BPF3)
T2 sequence: T1 sequence

B1: PRAF4_BRX (BRX domain of PRAF4/RLD1), fused with Gal4 activation domain (domain or fragment, UniProt Q947D2 1023-1078)
chain: AEWIEQYEPGVYITLVALHDGTRDLRRVRFSRRRFGEHQAETWWSENREKVYEKYN
B2: PRAF4 fused with a split YFP half (BiFC) (protein, UniProt Q947D2 1-1103)
chain: MADLVTYSNADHNLEQALITLKKGTQLLKYGRKGKPKFYPFRLSSDEKSLIWISSSGEKRLKLASVSKIVPGQRTAVFQRYLRPEKDYLSFSLLYNGKKKSLDLICKDKVEAEIWIGGLKTLISTGQGGRSKIDGWSGGGLSVDASRELTSSSPSSSSASASRGHSSPGTPFNIDPITSPKSAEPEVPPTDSEKSHVALDNKNMQTKVSGSDGFRVSVSSAQSSSSHGSAADDSDALGDVYIWGEVICDNVVKVGIDKNASYLTTRTDVLVPKPLESNIVLDVHQIACGVRHAAFVTRQGEIFTWGEESGGRLGHGIGKDVFHPRLVESLTATSSVDFVACGEFHTCAVTLAGELYTWGDGTHNVGLLGHGSDISHWIPKRIAGSLEGLHVASVSCGPWHTALITSYGRLFTFGDGTFGVLGHGDKETVQYPREVESLSGLRTIAVSCGVWHTAAVVEIIVTQSNSSSVSSGKLFTWGDGDKNRLGHGDKDPRLKPTCVPALIDYNFHKIACGHSLTVGLTTSGQVFTMGSTVYGQLGNLQTDGKLPCLVEDKLASEFVEEISCGAYHVAALTSRNEVYTWGKGANGRLGHGDLEDRKVPTIVEALKDRHVKYIACGSNYTAAICLHKWVSGAEQSQCSTCRLAFGFTRKRHNCYNCGLVHCHSCSSKKAFRAALAPSAGRLYRVCDSCYVKLSKVSEINDTNRRNSAVPRLSGENRDRLDKSEIRLAKFGTSNMDLIKQLDSKAAKQGKKTDTFSLGRNSQLPSLLQLKDAVQSNIGDMRRATPKLAQAPSGISSRSVSPFSRRSSPPRSATPMPSTSGLYFPVGIADNMKKTNEILNQEIVKLRTQVDSLTQKCEFQEVELQNSVKKTQEALALAEEESAKSRAAKEAIKSLIAQLKDVAEKLPPGESVKLACLQNGLDQNGFHFPEENGFHPSRSESMTSSISSVAPFDFAFANASWSNLQSPKQTPRASERNSNAYPADPRLSSSGSVISERIEPFQFQNNSDNGSSQTGVNNTNQVEAEWIEQYEPGVYITLVALHDGTRDLRRVRFSRRRFGEHQAETWWSENREKVYEKYNVRVSEKSTASQTHRDRDEEEEDIPH
B3: PRAF4/RLD1, full-length, yeast two-hybrid fusion (protein, UniProt Q947D2 1-1103)
chain: B2 chain

Experiments:
[1] = biological target: T1, BASL, full-length, fused with Gal4 DNA-binding domain (Arabidopsis thaliana); assay: two-hybrid; pairwise; bait in pGBKT7 (BD), prey in pGADT7 (AD), strain AH109; tested on SD/-Leu/-Trp/-His, 3 days at 30 °C; 3-AT where needed
[2] = biological target: T2, BASL fused with a split YFP half (BiFC) (Arabidopsis thaliana); assay: split reporter; BiFC (nYFP/cYFP) in N. benthamiana leaf epidermal cells, imaged three to five days after infiltration
[3] = biological target: BASL_I (internal domain of BASL), yeast two-hybrid fusion (Arabidopsis thaliana); assay: two-hybrid; pairwise; bait in pGBKT7 (BD), prey in pGADT7 (AD), strain AH109; tested on SD/-Leu/-Trp/-His, 3 days at 30 °C; 3-AT where needed
[4] = biological target: BASL_C (C-terminal domain of BASL), yeast two-hybrid fusion (Arabidopsis thaliana); assay: as above
[5] = biological target: BASL_N (N-terminal domain of BASL), yeast two-hybrid fusion (Arabidopsis thaliana); assay: as above
[6] = biological target: GNOM fused with a split YFP half (BiFC) (Arabidopsis thaliana); assay: split reporter; BiFC (nYFP/cYFP) in N. benthamiana leaf epidermal cells, imaged three to five days after infiltration
[7] = biological target: GNOM_N (N-terminal half of GNOM), fused with Gal4 DNA-binding domain (Arabidopsis thaliana); assay: two-hybrid; pairwise; bait in pGBKT7 (BD), prey in pGADT7 (AD), strain AH109; tested on SD/-Leu/-Trp/-His, 3 days at 30 °C; 3-AT where needed
[8] = biological target: GNOM_C (C-terminal half of GNOM), fused with Gal4 DNA-binding domain (Arabidopsis thaliana); assay: as above

| Molecule | binding [1] | binding [2] | further results |
| --- | --- | --- | --- |
| BRX domain of PRAF5/RLD4, fused with Gal4 activation domain (Arabidopsis thaliana) (domain or fragment) | binds |  |  |
| BRX domain of PRAF8/RLD2, fused with Gal4 activation domain (Arabidopsis thaliana) (domain or fragment) | binds |  |  |
| BRX domain of PRAF9/RLD3, fused with Gal4 activation domain (Arabidopsis thaliana) (domain or fragment) | binds |  |  |
| PRAF4ΔBRX (genomic PRAF4 with BRX domain deletion) fused with a split YFP half (BiFC) (from UniProt Q947D2) |  | no binding |  |
| PRAF4▵RCC1 (PRAF4 with the RCC1 domain deleted), yeast two-hybrid fusion (from UniProt Q947D2) | binds |  |  |
| PRAF5 fused with a split YFP half (BiFC) (from UniProt A0A1P8BCA2) |  | binds |  |
| PRAF8 fused with a split YFP half (BiFC) (from UniProt F4K0X5) |  | binds |  |
| PRAF9 fused with a split YFP half (BiFC) (Arabidopsis thaliana) |  | binds |  |
| B1 |  |  | binding [3]: binds; binding [4]: no binding; binding [5]: no binding |
| B2 |  |  | binding [6]: binds |
| B3 |  |  | binding [7]: no binding; binding [8]: no binding |
